Results reported in patent US8198352B2, “High purity monoalkyltin compounds and uses thereof” (Arkema France, priority 2008, dated 2012).

Test: Example B: colorhold of PVC/copolymer film calendering formulation on Collin two-roll mill at 190° C.
Conditions: two-roll mill 190° C., Stab 2 and 3 at 1.5 phr, Stab 1 at 1.7 phr (equal tin content)

CCCCCCC[CH2][Sn]([S]CC(=O)OCC(CC)CCCC)([S]CC(=O)OCC(CC)CCCC)[S]CC(=O)OCC(CC)CCCC (stereo not drawn) [Stab 1]
b* value in Hunter L*a*b* scale (t 2 min): 7.5 | b* value in Hunter L*a*b* scale (t 3 min): 8.1 | b* value in Hunter L*a*b* scale (t 4 min): 8.8 | b* value in Hunter L*a*b* scale (t 5 min): 8.6 | b* value in Hunter L*a*b* scale (t 6 min): 9.3 | b* value in Hunter L*a*b* scale (t 7 min): 8.9 | b* value in Hunter L*a*b* scale (t 8 min): 10 | b* value in Hunter L*a*b* scale (t 9 min): 10 | b* value in Hunter L*a*b* scale (t 10 min): 11 | b* value in Hunter L*a*b* scale (t 12 min): 13 | b* value in Hunter L*a*b* scale (t 15 min): 17 | b* value in Hunter L*a*b* scale (t 20 min): 40
